These are yes or no findings as the source states them, for the method shown. Some results given as binding are weak or reduced against the parent protein; the word gives no strength.
Target: plasma membrane mannose-6-phosphate receptor of human Tay-Sachs fibroblasts (human) (UniProt P11717)
Assay: uptake from conditioned media by TSD fibroblasts, with or without 5 mM mannose-6-phosphate; read as intracellular MUGS activity

The chains behind the UniProt entries cited, without tags or fusion partners. Residues count along the entry.
UniProt P11717, residues 41-2491: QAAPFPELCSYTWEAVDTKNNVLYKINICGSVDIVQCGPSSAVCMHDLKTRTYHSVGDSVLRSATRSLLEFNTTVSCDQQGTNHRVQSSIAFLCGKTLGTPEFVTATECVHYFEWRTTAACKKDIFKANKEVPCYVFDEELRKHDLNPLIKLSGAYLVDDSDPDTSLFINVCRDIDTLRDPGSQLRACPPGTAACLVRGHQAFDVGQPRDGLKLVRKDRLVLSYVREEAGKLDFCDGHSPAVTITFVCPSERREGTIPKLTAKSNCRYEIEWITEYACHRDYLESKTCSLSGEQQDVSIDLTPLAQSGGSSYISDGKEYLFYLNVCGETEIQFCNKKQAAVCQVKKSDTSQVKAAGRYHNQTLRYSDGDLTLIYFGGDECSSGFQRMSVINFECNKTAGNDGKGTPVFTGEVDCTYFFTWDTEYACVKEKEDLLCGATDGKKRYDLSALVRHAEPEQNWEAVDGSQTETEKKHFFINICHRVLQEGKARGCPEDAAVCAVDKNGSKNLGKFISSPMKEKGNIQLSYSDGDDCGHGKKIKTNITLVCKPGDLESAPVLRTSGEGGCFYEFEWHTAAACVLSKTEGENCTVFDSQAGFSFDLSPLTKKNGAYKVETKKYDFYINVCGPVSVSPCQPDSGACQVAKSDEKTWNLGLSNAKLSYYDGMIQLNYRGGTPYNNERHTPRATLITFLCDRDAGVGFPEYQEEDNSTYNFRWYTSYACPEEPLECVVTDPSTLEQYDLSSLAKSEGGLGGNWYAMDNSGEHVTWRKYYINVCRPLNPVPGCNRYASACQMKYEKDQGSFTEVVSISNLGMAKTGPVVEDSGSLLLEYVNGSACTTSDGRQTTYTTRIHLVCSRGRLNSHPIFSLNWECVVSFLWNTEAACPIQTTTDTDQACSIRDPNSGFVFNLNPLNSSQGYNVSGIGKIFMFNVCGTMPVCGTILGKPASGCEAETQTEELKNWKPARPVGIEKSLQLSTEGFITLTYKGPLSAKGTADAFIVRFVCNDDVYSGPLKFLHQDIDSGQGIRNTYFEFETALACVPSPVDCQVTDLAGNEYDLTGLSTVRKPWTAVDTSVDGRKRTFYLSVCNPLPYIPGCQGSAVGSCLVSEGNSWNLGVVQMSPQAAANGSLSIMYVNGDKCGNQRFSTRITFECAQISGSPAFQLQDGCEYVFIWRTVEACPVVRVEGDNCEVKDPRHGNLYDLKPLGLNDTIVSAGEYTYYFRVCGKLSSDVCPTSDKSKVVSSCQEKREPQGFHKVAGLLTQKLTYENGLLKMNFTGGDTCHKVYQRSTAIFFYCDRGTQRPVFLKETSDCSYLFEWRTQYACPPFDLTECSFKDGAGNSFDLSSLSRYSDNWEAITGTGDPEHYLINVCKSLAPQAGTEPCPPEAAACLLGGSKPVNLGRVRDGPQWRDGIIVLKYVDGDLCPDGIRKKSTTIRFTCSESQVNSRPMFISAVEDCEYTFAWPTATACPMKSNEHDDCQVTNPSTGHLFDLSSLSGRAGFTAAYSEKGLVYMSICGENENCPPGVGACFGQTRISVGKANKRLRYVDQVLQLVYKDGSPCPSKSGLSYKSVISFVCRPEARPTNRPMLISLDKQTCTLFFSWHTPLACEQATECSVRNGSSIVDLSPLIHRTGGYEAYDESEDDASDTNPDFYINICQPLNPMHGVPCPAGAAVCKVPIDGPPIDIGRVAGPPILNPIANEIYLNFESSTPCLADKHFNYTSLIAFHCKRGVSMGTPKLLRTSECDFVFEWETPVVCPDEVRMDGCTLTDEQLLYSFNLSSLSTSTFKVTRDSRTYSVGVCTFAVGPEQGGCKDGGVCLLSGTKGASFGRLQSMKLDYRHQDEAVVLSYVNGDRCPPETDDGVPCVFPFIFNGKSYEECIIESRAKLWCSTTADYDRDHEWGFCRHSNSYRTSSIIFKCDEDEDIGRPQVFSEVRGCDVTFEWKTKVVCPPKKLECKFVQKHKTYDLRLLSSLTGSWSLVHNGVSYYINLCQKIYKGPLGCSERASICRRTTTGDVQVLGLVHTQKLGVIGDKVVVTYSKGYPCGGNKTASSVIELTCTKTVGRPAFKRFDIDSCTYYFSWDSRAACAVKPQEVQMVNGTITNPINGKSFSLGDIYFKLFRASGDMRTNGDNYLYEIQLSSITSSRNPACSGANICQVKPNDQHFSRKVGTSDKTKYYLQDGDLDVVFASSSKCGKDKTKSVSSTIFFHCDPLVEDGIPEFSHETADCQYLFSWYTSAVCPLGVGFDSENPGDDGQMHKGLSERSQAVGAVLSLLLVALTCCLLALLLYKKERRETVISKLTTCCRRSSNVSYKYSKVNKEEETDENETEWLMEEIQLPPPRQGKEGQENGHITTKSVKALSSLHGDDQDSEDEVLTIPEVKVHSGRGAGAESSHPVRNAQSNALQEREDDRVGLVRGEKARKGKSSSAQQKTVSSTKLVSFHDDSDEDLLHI

binding: binds
B1: secreted variant β-hexosaminidase protein in conditioned media (enzyme)
chain: LWPWPQNFQTSDQRYVLYPNNFQFQYDVSSAAQPGCSVLDEAFQRYRDLLFGSGSWPRPYLTGKRHTLEKNVLVVSVVTPGCNQLPTLESVENYTLTINDDQCLLLSETVWGALRGLETFSQLVWKSAEGTFFINKTEIEDFPRFPHRGLLLDTSRHYLPLKSILDTLDVMAYNKLNVFHWHLVDDQSFPYESFTFPELMRKGSYSLSHIYTAQDVKEVIEYARLRGIRVLAEFDTPGHTLSWGPGIPGLLTPCYSGSEPSGTFGPVNPSLNNTYEFMSTFFLEVSSVFPDFYLHLGGDEVDFTCWKSNPEIQDFMRKKGFGEDFKQLESFYIQTLLDIVSSYGKGYVVWQEVFDNKVKIQPDTIIQVWREDIPVNYMKELELVTKAGFRALLSAPWYLNRISYGQDWRKFYKVEPLAFEGTPEQKALVIGGEACMWGEYVDATNLVPRLWPRAGAVAERLWSNKLTRDMDDAYDRLSHFRCELVRRGVAAQPLYAGYCNQEFEQT
modifications: mannose-6-phosphate on Asn-linked oligosaccharides

Reference: patent US20150258180A1 (UNIVERSITY OF MANITOBA, published 2015)
